# Experimental data as given in PubChem BioAssay AID1508600 (Functional Genomics Laboratory (NCATS/FGL), 2020).
# The campaign covered roughly 53,000 sequences. About 3,700 (7%) were called active.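 How the source made its calls: active means gene knockdowns whose robust z-score for IL-1 alpha signal is at least 2 or at most -2, so actives lie on both sides; inactive means the rest.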 The list shows a part of the results.
# Assay: Components of the Cytosolic LPS Sensing Pathway: Gene Identification via Genome-wide siRNA Screen;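 further: robust z of the log signal after scaling to non-targeting control siRNA wells of the plate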
# Details: RAW264.7 macrophages, IL-1a HTRF, actives lie on both sides, screened at 100 nM (by protocol), cells primed 5 h with Pam3CSK4 first
# Procedure, shortened: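 RAW264.7 mouse macrophages reverse-transfected with single siRNAs (100 nM final) for 48h, primed with Pam3CSK4 for 5 hours, then transfected with LipidA for 24 hour. Supernatant IL-1a read by HTRF; values normalized to negative-control median, log-transformed robust z-scores.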
row,Sequence,z-score
1,CGGACUCCAUAUGUUGAAUTT against Crtc1,inactive: 0.414
2,CCCUAAAGUCCAGAAAAUATT against Olfr1211,inactive: -1.25
3,GGACCAAAUUACAUAGCAATT against Itgb3bp,inactive: 0.329
4,GGUGAUUUGAACUGUGAAATT against Tmem126a,inactive: -0.963
5,GGAGAAGGCAAAGACUCUGTT against Serpina3n,inactive: -0.546
6,GGCUGGAUUUUAUUUUGUUTT against D830039M14Rik,inactive: 0.339
7,CCAACCGAGUCAUUUAAGGTT against Runx2,inactive: 0.112
8,GGUAUGAUGGACUCUCUGUTT against Olfr186,inactive: -0.485
9,CCACCCUGUGAAAAAGUCATT against Ccr3,inactive: -1.08
10,GGUGGUUAAAUGGUUUUAATT against Prkg2,inactive: 1.98
11,CCCUCUUAGGAGCUAGUGATT against Atp2b4,inactive: -1.85
12,GGAAGCUUCACAUCAGCCATT against Hoxb5,inactive: 0.194
13,GCCACGUCUAAGUAUCAUUTT against Col6a1,inactive: -0.377
14,GGCCAUUCACGUUUUACUCTT against Ric8b,inactive: -1.02
15,GGGCCACAAGAAAUGAUAUTT against Nqo2,inactive: -0.196
16,GGGUCUGUGGGACAUUAUGTT against Serinc2,inactive: -1.13
17,GGAAUAAAGAUCUUUGGUUTT against Vip,inactive: 0.105
18,GCAUUUGUACAUUGUGACUTT against Ces5a,active: -2.28
19,GGAUGUCGUGUGUUACUUGTT against Dgkg,inactive: -0.0626
20,GGAGAUUGCCAUAGCUGCUTT against Mybl2,inactive: -0.0915
21,GGGCUUCUUCAGACGAACATT against Nr1i3,inactive: 1.57
22,GCUUCUACGUAUGUGCCCATT against Tpx2,inactive: -1.52

row,Sequence,z-score
1,CCUUCUAGACACCAUACCCTT against Pidd1,inactive: 0.259
2,GGAGUGGAAGAAGAAGUAUTT against Agap3,inactive: 0.177
3,GGAUUCAAGGCUGUGGGAATT against Timp1,inactive: 1.24
4,GGAGCUCAUCUACAUGCACTT against Plbd2,inactive: -0.0217
5,GGUCUUAGUAAUAUCAUCGTT against Cacng2,inactive: -0.135
6,GCAAAAGGGCUGUUUGUAGTT against Olfr1279,inactive: -0.416
7,CCACAAGGUCUUUGGAUGATT against Pcdha8,inactive: 1.26
8,GGAUCACAGCGAUUAUUGATT against D630028G08Rik,inactive: -0.613
9,GCAAGACAUUUUGAGAAGATT against Zdhhc20,inactive: -0.695
10,CCCACUGUCCAACUACUCATT against Rexo1,inactive: 0.432
11,AAUUCAUCCUCAGCGUACATT against D830030K20Rik,inactive: 0.49
12,GAUUCAGCAUUAUUUCUGUTT against Olfr980,inactive: 0.524
13,GGGCUUCAAGCAUAGCUUCTT against Fiz1,inactive: -0.343
14,GGGAUCAAUGCUUAAUACATT against Zfp2,inactive: 1.1
15,GGCCCGAAUAGCUAUGACUTT against Cldn7,inactive: 0.817
16,GGGUUAAGGUAGUUUCUAATT against 4930579C12Rik,inactive: 0.613
17,GGUACUGAAUUCAACAAACTT against Ercc6l,inactive: -0.447
18,GGAGUUGGUCAAGGUGCUUTT against Parvb,inactive: 0.863
19,AGUGAACAUCGAUCGCAUGTT against Gng8,inactive: 0.937
20,CGUAUAUCGAUGAAGAUGATT against BC016579,inactive: -1.12
21,GGCAUAAACUACAUUUGAUTT against S1pr3,inactive: -0.258
22,GCAGGCAUUCUCUCAAAAUTT against Tmem176a,inactive: -0.19

row,Sequence,z-score
1,GGAUAAACCAGAAACCUUCTT against Msmo1,inactive: -0.0602
2,GGAGAUCCAAUGAACCUACTT against 4932414J04Rik,inactive: 1.7
3,GCCCAAGGUAACAACAAGCTT against Rtn4r,inactive: 1.28
4,CCACAAUUUUUUCUGCCUCTT against Olfr492,inactive: -0.694
5,GCACUACCUGUAUUAAACUTT against Efhd2,inactive: -0.652
6,GGAGGAAAGGGAAGAAUUUTT against Rnf125,inactive: 1
7,GCUUAUAAUGGCAAUAUUGTT against Nvl,inactive: 0.275
8,GGCCACUUAAAUCAGAACUTT against Hoxc8,inactive: 0.817
9,GCUACGGAACCUCUAGACATT against Cbln3,inactive: 0.179
10,CGACAACGACAUCAUGGAATT against Sfrp2,inactive: 1.52
11,GGUUCUCACGCGGUUUUUGTT against Pigv,inactive: -0.307
12,GCCUUAAGUAUUGUUACUUTT against Tnfrsf25,inactive: 0.847
13,GGAUGGAAUGCAUCGAUUATT against Adipor2,inactive: 0.481
14,CCAGGAACCAGAAAAAGAUTT against Aven,inactive: 0.0457
15,GCAAAUUUAGUUGACCUUGTT against Ghitm,inactive: -0.561
16,GCAAUACUCACCUCUUAAATT against Scamp2,inactive: 1.04
17,GGUAACUGGGAAUUGUGUUTT against Vti1a,inactive: 0.812
18,GGAGACAUCUCAAAUGAUATT against Trim30a,inactive: 0.324
19,GCCAUUCAUGGAGAAGGAUTT against Lman1l,inactive: -1.63
20,GGUAGAGCCUGACAUCAACTT against Ppp2r3d,inactive: 1.41
21,GCUGGACUAACAUUGCUGUTT against Tmem270,inactive: -0.758
22,AGUGCUUUGUAAUGCUUGGTT against H2bc8,inactive: -0.228

row,Sequence,z-score
1,CGCAAGUGGAUUGUAAUAATT against Sema3e,inactive: -0.19
2,CACUGAACAGAUCAGAGCATT against Fam189b,active: -2.44
3,AUAUAGACCUCGUUACGUATT against Nkain2,inactive: 1.39
4,GGAAACAGGAAAGUUAAUUTT against Fyco1,inactive: 1.05
5,GCUGGAUAGCUAAAAUGAUTT against Gimap5,inactive: -0.0294
6,GGGCCUAUUAAUCUUGAGUTT against Klrb1b,inactive: 0.153
7,GGAAAAAAAAGUCUUCCUATT against Ttll6,inactive: -0.0777
8,CCAUAUCCUGAAUACACCCTT against Olfr295,inactive: -1.43
9,GGCAGACUGCUGACAUAUGTT against Cd37,active: -2.44
10,GCGGACAGGACAUUGAUCUTT against Arpc3,inactive: -0.339
11,GGUCAGAGCCAAUUUCUAUTT against Kcnmb1,inactive: -1.53
12,GGUUCUGCACAUCUGAACATT against Cst3,inactive: -0.109
13,GGCAAUCCUAACACAGAAUTT against Cgrrf1,inactive: -0.905
14,GGAACAAUUCUGGGUAAUUTT against Bcl2l10,inactive: -0.648
15,CCCACUUGUGGCAGUGUACTT against Stub1,inactive: 0.818
16,GGACUGUUUUAGAUUACUUTT against Klra4,inactive: 0.968
17,CGGACACUUUCUGUACUUATT against Mgat2,inactive: -0.44
18,GGAAAACCUAGAAGAUAAUTT against Syt16,inactive: -1.35
19,CGAGAGUAACUUUCGUCAGTT against Dedd,inactive: 1.07
20,CCCAUACUAAGGAACUGCATT against Tnfrsf12a,inactive: -0.323
21,GGACCAUAUCAUUGAUAUATT against Thoc3,inactive: -0.908
22,GGCUAAAUUCUACUUGAUATT against Ppfibp1,inactive: -1.89

# Individual results from the entries so far:
# AUAUAGACCUCGUUACGUATT against Nkain2 – z-score: inactive: 1.39
# CGAGAGUAACUUUCGUCAGTT against Dedd – z-score: inactive: 1.07
# CACUGAACAGAUCAGAGCATT against Fam189b – z-score: active: -2.44
# GGAACAAUUCUGGGUAAUUTT against Bcl2l10 – z-score: inactive: -0.648
# GGAAAAAAAAGUCUUCCUATT against Ttll6 – z-score: inactive: -0.0777

# Going on with the list:

row,Sequence,z-score
1,GGAAAACUACUAAAAAGUCTT against Zfp938,inactive: -0.31
2,CGCAGUUAUAUUCCACCACTT against Slain1,inactive: -0.317
3,GGAGCAUCCCGACUACAAGTT against Sox21,active: 3.54
4,GGAGCCAAGUGUACAGUCUTT against Stk19,inactive: 0.451
5,GCAGAACGUAUUCUGAAACTT against Uap1,inactive: 0.605
6,GGAUCUUAAGAAGUUCCAATT against Chchd6,inactive: -0.104
7,GGUUGUAGACGUAAAUGACTT against Pcdhgc3,inactive: -0.235
8,GGGUAAACAAACAGGUACCTT against Tril,inactive: 0.0864
9,GCACUUGCUAUUAGUGUCCTT against Rhod,inactive: -0.286
10,GGCAAUAACCAGUAAAUGUTT against Maf,inactive: 0.522
11,GGUAUCAAGUGCAGAAUGUTT against Slc37a1,inactive: 1.65
12,GAAUCCGAGAUACGAGCCUTT against H2-D4,inactive: 0.0829
13,GGAUCAGAACGUGGUGCAUTT against Slc12a5,inactive: -0.504
14,GGAGAUGAUCUUCAACCUUTT against Eya2,inactive: 1.63
15,GGCAGACCGGUAUUUUGUGTT against Ascc2,inactive: 0.458
16,GGGUAUCUGUUCUGAUACUTT against Lsm11,inactive: 0.329
17,GGGCAACAUUGCGCAAAUGTT against Pwp2,inactive: -1.4
18,GGACAAUCCAUAAGUUAAATT against Scai,inactive: 0.22
